Results published in patent CN109942708A.
Results are given in words; binding and its absence hold for the method and conditions named. Some binding calls cover weakened binding; strength is not graded here.

The chains behind the UniProt entries cited, without tags or fusion partners. Where a name states a change or a piece, a line headed by the entry shows the natural chain unless it says otherwise. Residues count along the entry.
UniProt Q02223: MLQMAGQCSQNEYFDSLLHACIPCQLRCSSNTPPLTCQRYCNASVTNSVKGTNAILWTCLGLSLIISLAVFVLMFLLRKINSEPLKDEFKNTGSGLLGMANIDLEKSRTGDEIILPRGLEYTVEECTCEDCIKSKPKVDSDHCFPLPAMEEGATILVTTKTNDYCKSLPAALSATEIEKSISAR
BCMA抗原: residues 1-54 of Q02223

Assays:
[1] = molecular target: BCMA抗原 (UniProt Q02223); assay: ELISA on antigen coated at 10ug/mL
[2] = molecular target: BCMA on BCMA-positive cells (A549-BCMA, U266) (UniProt Q02223); assay: flow cytometry, FITC-labelled VHH on U266 cells
[3] = molecular target: BCMA on BCMA-positive cells (A549-BCMA, U266) (UniProt Q02223); assay: flow cytometry, FITC-labelled VHH on A549-BCMA cells

Measured: binding

B1: BCMA单域抗体B1 (VHH)
VHH: QVQLVESGGGLVQPGGSLRLSCTASGSILSIYAMGWYRQAPGKQRELVAAINISSNTFYRDSVKGRFTISRDNAENTVYLQMNSLKPEDTAVYYCNVAPWGDYDVKTDFGGWGQGTQVTVSS
binds: all assays above

B2: BCMA单域抗体B65 (VHH)
VHH: QLQLVESGGGLVQPGGSLRLSCAASGSISGIYAMGWYRQAPGKQRRLVAAITSGGDTFHADSVKGRFTISRDNAKNTMYLQMNSLKPEDTAVYYCNVAPWGDYDVRADFGSWGQGTQVTVSS
binds: all assays above
